{"source": "PubChem BioAssay AID743121 (NCATS, 2013)", "screen": "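Partners whose loss is lethal together with topoisomerase I blockade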 (primary screen)", "cells": "MDA-MB-231 cells, a human breast cancer line", "knock-down reagent": "single siRNA against human genes, 20 nM siRNA (0.8 pmol per well)", "timing": "120 h (drug added 48 h after transfection, read 72 h later)", "challenge": "camptothecin 20 nM (about EC30) for 72 h; vehicle 0.1% DMSO in parallel plates", "read-out": "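CellTiter-Glo ATP signal, scaled to control siRNA as percent viability; sensitisation given as log2 of untreated divided by camptothecin-treated viability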", "scale": "log2 vehicle/camptothecin viability: higher = stronger sensitisation to camptothecin; viability with camptothecin: higher = more viable cells", "units": "viability with camptothecin in % of control", "active means": "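Each gene scored by redundant siRNA activity (RSA) over its individual siRNA ratios; a gene is called active at p < 0.001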", "note": "The deposit covers about 26,000 reagents; this is a part drawn at random. 167 of them (0.63%) were called active. 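Calls are per gene from RSA p-values that are not deposited; an individual active-marked siRNA can sensitise only weakly.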 Reagents against one gene are numbered here. Further read-outs or replicates are left out here."}
{"target": "PPM1M", "reagent no.": 1, "log2 vehicle/camptothecin viability": -0.38, "viability with camptothecin": 77.1, "outcome": "inactive"}
{"target": "PPM1M", "reagent no.": 2, "log2 vehicle/camptothecin viability": -0.173, "viability with camptothecin": 97.5, "outcome": "inactive"}
{"target": "PPM1M", "reagent no.": 3, "log2 vehicle/camptothecin viability": -0.00951, "viability with camptothecin": 88.1, "outcome": "inactive"}
{"target": "PPM1M", "reagent no.": 4, "log2 vehicle/camptothecin viability": -0.277, "viability with camptothecin": 66.2, "outcome": "inactive"}
{"target": "TRAPPC2", "reagent no.": 1, "log2 vehicle/camptothecin viability": -0.387, "viability with camptothecin": 79.9, "outcome": "inactive"}
{"target": "TRAPPC2", "reagent no.": 2, "log2 vehicle/camptothecin viability": -0.123, "viability with camptothecin": 77.1, "outcome": "inactive"}
{"target": "TRAPPC2", "reagent no.": 3, "log2 vehicle/camptothecin viability": -0.547, "viability with camptothecin": 69.7, "outcome": "inactive"}
{"target": "TRAPPC2", "reagent no.": 4, "log2 vehicle/camptothecin viability": 0.426, "viability with camptothecin": 46.7, "outcome": "inactive"}
{"target": "CCNC", "reagent no.": 1, "log2 vehicle/camptothecin viability": -0.0591, "viability with camptothecin": 72.8, "outcome": "inactive"}
{"target": "CCNC", "reagent no.": 2, "log2 vehicle/camptothecin viability": -0.252, "viability with camptothecin": 125, "outcome": "inactive"}
{"target": "CCNC", "reagent no.": 3, "log2 vehicle/camptothecin viability": -0.28, "viability with camptothecin": 73.9, "outcome": "inactive"}
{"target": "CCNC", "reagent no.": 4, "log2 vehicle/camptothecin viability": 0.0312, "viability with camptothecin": 105, "outcome": "inactive"}
{"target": "IFNAR1", "reagent no.": 1, "log2 vehicle/camptothecin viability": -0.745, "viability with camptothecin": 110, "outcome": "inactive"}
{"target": "IFNAR1", "reagent no.": 2, "log2 vehicle/camptothecin viability": -0.0842, "viability with camptothecin": 108, "outcome": "inactive"}
{"target": "IFNAR1", "reagent no.": 3, "log2 vehicle/camptothecin viability": -0.175, "viability with camptothecin": 93.1, "outcome": "inactive"}
{"target": "IFNAR1", "reagent no.": 4, "log2 vehicle/camptothecin viability": 0.419, "viability with camptothecin": 43.1, "outcome": "inactive"}
{"target": "PTGIS", "reagent no.": 1, "log2 vehicle/camptothecin viability": -0.334, "viability with camptothecin": 111, "outcome": "inactive"}
{"target": "PTGIS", "reagent no.": 2, "log2 vehicle/camptothecin viability": -0.357, "viability with camptothecin": 45, "outcome": "inactive"}
{"target": "PTGIS", "reagent no.": 3, "log2 vehicle/camptothecin viability": 0.335, "viability with camptothecin": 63.3, "outcome": "inactive"}
{"target": "PTGIS", "reagent no.": 4, "log2 vehicle/camptothecin viability": 0.794, "viability with camptothecin": 36.1, "outcome": "inactive"}
{"target": "HTT", "reagent no.": 1, "log2 vehicle/camptothecin viability": -0.00351, "viability with camptothecin": 59.1, "outcome": "inactive"}
{"target": "HTT", "reagent no.": 2, "log2 vehicle/camptothecin viability": -0.313, "viability with camptothecin": 74.4, "outcome": "inactive"}
{"target": "HTT", "reagent no.": 3, "log2 vehicle/camptothecin viability": 0.181, "viability with camptothecin": 71.6, "outcome": "inactive"}
{"target": "HTT", "reagent no.": 4, "log2 vehicle/camptothecin viability": -0.363, "viability with camptothecin": 98.3, "outcome": "inactive"}
{"target": "KCNMB3", "reagent no.": 1, "log2 vehicle/camptothecin viability": 0.017, "viability with camptothecin": 103, "outcome": "inactive"}
{"target": "KCNMB3", "reagent no.": 2, "log2 vehicle/camptothecin viability": -0.387, "viability with camptothecin": 126, "outcome": "inactive"}
{"target": "KCNMB3", "reagent no.": 3, "log2 vehicle/camptothecin viability": 0.0804, "viability with camptothecin": 103, "outcome": "inactive"}
{"target": "KCNMB3", "reagent no.": 4, "log2 vehicle/camptothecin viability": -0.388, "viability with camptothecin": 60.2, "outcome": "inactive"}

Next part, starting with the last 5 of the part before.
{"target": "HTT", "reagent no.": 4, "log2 vehicle/camptothecin viability": -0.363, "viability with camptothecin": 98.3, "outcome": "inactive"}
{"target": "KCNMB3", "reagent no.": 1, "log2 vehicle/camptothecin viability": 0.017, "viability with camptothecin": 103, "outcome": "inactive"}
{"target": "KCNMB3", "reagent no.": 2, "log2 vehicle/camptothecin viability": -0.387, "viability with camptothecin": 126, "outcome": "inactive"}
{"target": "KCNMB3", "reagent no.": 3, "log2 vehicle/camptothecin viability": 0.0804, "viability with camptothecin": 103, "outcome": "inactive"}
{"target": "KCNMB3", "reagent no.": 4, "log2 vehicle/camptothecin viability": -0.388, "viability with camptothecin": 60.2, "outcome": "inactive"}
{"target": "TNFRSF8", "reagent no.": 1, "log2 vehicle/camptothecin viability": -0.219, "viability with camptothecin": 118, "outcome": "inactive"}
{"target": "TNFRSF8", "reagent no.": 2, "log2 vehicle/camptothecin viability": -0.135, "viability with camptothecin": 55.5, "outcome": "inactive"}
{"target": "TNFRSF8", "reagent no.": 3, "log2 vehicle/camptothecin viability": 0.107, "viability with camptothecin": 69.8, "outcome": "inactive"}
{"target": "TNFRSF8", "reagent no.": 4, "log2 vehicle/camptothecin viability": -0.431, "viability with camptothecin": 66.9, "outcome": "inactive"}
{"target": "RFC4", "reagent no.": 1, "log2 vehicle/camptothecin viability": -0.163, "viability with camptothecin": 74.2, "outcome": "inactive"}
{"target": "RFC4", "reagent no.": 2, "log2 vehicle/camptothecin viability": -0.346, "viability with camptothecin": 89, "outcome": "inactive"}
{"target": "RFC4", "reagent no.": 3, "log2 vehicle/camptothecin viability": -0.523, "viability with camptothecin": 60, "outcome": "inactive"}
{"target": "RABGGTA", "reagent no.": 1, "log2 vehicle/camptothecin viability": -0.474, "viability with camptothecin": 43.7, "outcome": "inactive"}
{"target": "RABGGTA", "reagent no.": 2, "log2 vehicle/camptothecin viability": -0.09, "viability with camptothecin": 92.1, "outcome": "inactive"}
{"target": "RABGGTA", "reagent no.": 3, "log2 vehicle/camptothecin viability": -0.145, "viability with camptothecin": 107, "outcome": "inactive"}
{"target": "RABGGTA", "reagent no.": 4, "log2 vehicle/camptothecin viability": -0.358, "viability with camptothecin": 86.9, "outcome": "inactive"}
{"target": "OR2L3", "reagent no.": 1, "log2 vehicle/camptothecin viability": -0.00423, "viability with camptothecin": 46.3, "outcome": "inactive"}
{"target": "OR2L3", "reagent no.": 2, "log2 vehicle/camptothecin viability": 0.188, "viability with camptothecin": 87, "outcome": "inactive"}
{"target": "OR2L3", "reagent no.": 3, "log2 vehicle/camptothecin viability": -0.0811, "viability with camptothecin": 40, "outcome": "inactive"}
{"target": "OR2L3", "reagent no.": 4, "log2 vehicle/camptothecin viability": 0.0283, "viability with camptothecin": 94.8, "outcome": "inactive"}
{"target": "DECR2", "reagent no.": 1, "log2 vehicle/camptothecin viability": -0.421, "viability with camptothecin": 81.2, "outcome": "inactive"}
{"target": "DECR2", "reagent no.": 2, "log2 vehicle/camptothecin viability": -0.511, "viability with camptothecin": 92.1, "outcome": "inactive"}
{"target": "DECR2", "reagent no.": 3, "log2 vehicle/camptothecin viability": -0.096, "viability with camptothecin": 62.8, "outcome": "inactive"}
{"target": "DECR2", "reagent no.": 4, "log2 vehicle/camptothecin viability": -0.0338, "viability with camptothecin": 107, "outcome": "inactive"}
